Results published in paper PMC7380323 (ACS chemical neuroscience, 2020).

Legend:
Type in all cases: cell-based
[1] = system: HMC3 human microglia cells; assay: cells; details: HMC3, read-out: EC50 of GABA induced current
[2] = system: immortalized human microglia cells; assay: Automated patch clamp, GABA current response in immortalized human microglia; details: read-out: EC50 of GABA induced current
[3] = system: immortalized mouse microglia cells; assay: Automated patch clamp, GABA current response in immortalized mouse microglia; details: read-out: EC50 of GABA induced current

`NCCCC(=O)O` [GABA, γ-aminobutyric acid] gave an EC50 [1] of 270 nM, an EC50 [2] of 1940 nM and an EC50 [3] of 260 nM.
